# Laboratory results: article PMC3913574
# No constants are given. Whether binding was seen depends on the method and setting. Binding seen in cells or lysates may run through a third protein. Some results given as binding are weak or reduced against the parent protein; the word gives no strength. Where a sequence is shown, tags or fusion partners need not be part of it.
# T1: CADM1 (Cell adhesion molecule 1), endogenous in Caco-2 cells (human (endogenous in Caco-2)) (UniProt Q9BY67)
# T1 sequence: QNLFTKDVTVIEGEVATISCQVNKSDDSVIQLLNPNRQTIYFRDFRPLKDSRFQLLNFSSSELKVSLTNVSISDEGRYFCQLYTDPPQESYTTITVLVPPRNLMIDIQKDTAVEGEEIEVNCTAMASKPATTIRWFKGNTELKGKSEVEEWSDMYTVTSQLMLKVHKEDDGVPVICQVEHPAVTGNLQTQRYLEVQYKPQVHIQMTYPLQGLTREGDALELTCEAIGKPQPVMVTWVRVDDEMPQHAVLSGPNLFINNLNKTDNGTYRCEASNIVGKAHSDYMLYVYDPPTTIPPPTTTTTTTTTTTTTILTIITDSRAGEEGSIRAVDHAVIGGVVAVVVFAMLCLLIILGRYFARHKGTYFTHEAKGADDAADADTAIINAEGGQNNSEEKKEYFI
# Biological target: T1, CADM1 (Cell adhesion molecule 1), endogenous in Caco-2 cells (human (endogenous in Caco-2))
# Assay: co-IP; lysates of Caco-2 cells transiently expressing MPP3-HA, immunoprecipitated with anti-CADM1 or anti-Dlg antibodies (control rabbit IgG); Western blotting with antibodies against HA, Dlg, p85 and CADM1
binder,measurement,value
"MPP3-HA (protein, UniProt Q13368 1-585) MPVLSEDSGLHETLALLTSQLRPDSNHKEEMGFLRDVFSEKSLSYLMKIHEKLRYYERQSPTPVLHSAVALAEDVMEELQAASVHSDERELLQLLSTPHLRAVLMVHDTVAQKNFDPVLPPLPDNIDEDFDEESVKIVRLVKNKEPLGATIRRDEHSGAVVVARIMRGGAADRSGLVHVGDELREVNGIAVLHKRPDEISQILAQSQGSITLKIIPATQEEDRLKESKVFMRALFHYNPREDRAIPCQEAGLPFQRRQVLEVVSQDDPTWWQAKRVGDTNLRAGLIPSKGFQERRLSYRRAAGTLPSPQSLRKPPYDQPCDKETCDCEGYLKGHYVAGLRRSFRLGCRERLGGSQEGKMSSGAESPELLTYEEVARYQHQPGERPRLVVLIGSLGARLHELKQKVVAENPQHFGVAVPHTTRPRKSHEKEGVEYHFVSKQAFEADLHHNKFLEHGEYKENLYGTSLEAIQAVMAKNKVCLVDVEPEALKQLRTSEFKPYIIFVKPAIQEKRKTPPMSPACEDTAAPFDEQQQEMAASAAFIDRHYGHLVDAVLVKEDLQGAYSQLKVVLEKLSKDTHWVPVSWVR",binding,binds
